Structures can show the parent of a compound that is named as a salt. The list shows a part of the results. The calls rarely recur for the same compound in another form.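 Kinases were expressed as nanoluciferase fusions in K562 cells and luminescence was read every 4 h between 2 and 18 h as percent of control, DMSO set to 100% and a positive control to 0%. A time point counts as decreased when the signal drops significantly (2 sigma). The hit call is the authors' own, does not follow from the count of time points alone, and its rule is not shown.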
Columns and labels:
Test in all cases: kinase-Nluc reporter destabilization hit call (1 = scored as downregulated) (binary); higher = compound decreases kinase abundance
Settings in all cases: K562; 2-18 h
[1] = target: MAPK1 (UniProt P28482)
[2] = target: MAPK4 (UniProt P31152)
[3] = target: MAPKAPK2 (UniProt P49137)
[4] = target: MKNK1 (UniProt Q9BUB5)
[5] = target: NTRK2 (UniProt Q16620)
[6] = target: NTRK3 (UniProt Q16288)
[7] = target: PAK4 (UniProt O96013)
[8] = target: PBK (UniProt Q96KB5)
[9] = target: PDGFRB (UniProt P09619)
[10] = target: PDK1 (UniProt Q15118)
[11] = target: PDPK1 (UniProt O15530)
[12] = target: PIK4CA (UniProt P42356)
[13] = target: PIK4CB (UniProt Q9UBF8)
[14] = target: PLK1 (UniProt P53350)
[15] = target: PRKAA1 (UniProt Q13131)
[16] = target: PRKCA (UniProt P17252)
[17] = target: PTK2 (UniProt Q05397)
[18] = target: PTK2B (UniProt Q14289)
[19] = target: RAF1 (UniProt P04049)
[20] = target: RAF1_S257L (clone: RAF1_mut) (UniProt P04049)

Sequences of proteins named here, by UniProt entry; tags and fusion partners are left off. A change or cut given only in a name is not applied to a line headed by its entry.
UniProt P28482, whole entry: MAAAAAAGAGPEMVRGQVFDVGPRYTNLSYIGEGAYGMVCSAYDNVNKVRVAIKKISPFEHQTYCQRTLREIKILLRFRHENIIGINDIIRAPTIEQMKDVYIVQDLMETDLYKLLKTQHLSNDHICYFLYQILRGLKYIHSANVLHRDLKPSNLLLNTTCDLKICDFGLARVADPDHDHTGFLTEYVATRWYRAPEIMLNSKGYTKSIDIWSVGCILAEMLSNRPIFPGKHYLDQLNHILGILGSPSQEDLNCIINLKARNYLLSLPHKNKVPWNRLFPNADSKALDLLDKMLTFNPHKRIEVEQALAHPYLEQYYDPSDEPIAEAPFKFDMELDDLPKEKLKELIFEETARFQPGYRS
UniProt Q9BUB5: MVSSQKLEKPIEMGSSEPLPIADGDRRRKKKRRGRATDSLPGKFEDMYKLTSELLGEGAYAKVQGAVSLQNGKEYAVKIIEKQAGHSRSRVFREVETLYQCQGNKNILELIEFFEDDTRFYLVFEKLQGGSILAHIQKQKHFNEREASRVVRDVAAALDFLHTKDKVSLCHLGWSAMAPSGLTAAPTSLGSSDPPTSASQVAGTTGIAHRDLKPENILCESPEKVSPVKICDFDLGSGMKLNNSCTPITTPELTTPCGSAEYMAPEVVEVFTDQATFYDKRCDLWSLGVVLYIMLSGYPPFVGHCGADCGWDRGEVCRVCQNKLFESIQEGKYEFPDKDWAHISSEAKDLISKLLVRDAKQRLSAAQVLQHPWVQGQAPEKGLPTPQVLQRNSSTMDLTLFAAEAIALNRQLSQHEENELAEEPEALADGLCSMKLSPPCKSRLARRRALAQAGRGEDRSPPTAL
UniProt Q96KB5: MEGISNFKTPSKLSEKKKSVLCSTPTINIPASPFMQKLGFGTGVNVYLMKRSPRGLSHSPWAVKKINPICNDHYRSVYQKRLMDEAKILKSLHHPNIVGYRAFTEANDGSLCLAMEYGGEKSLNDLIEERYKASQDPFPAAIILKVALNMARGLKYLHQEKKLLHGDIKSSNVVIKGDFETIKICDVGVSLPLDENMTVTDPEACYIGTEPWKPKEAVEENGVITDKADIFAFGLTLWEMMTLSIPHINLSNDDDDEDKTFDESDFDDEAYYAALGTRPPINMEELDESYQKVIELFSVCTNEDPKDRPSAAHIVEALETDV
UniProt P09619, whole entry: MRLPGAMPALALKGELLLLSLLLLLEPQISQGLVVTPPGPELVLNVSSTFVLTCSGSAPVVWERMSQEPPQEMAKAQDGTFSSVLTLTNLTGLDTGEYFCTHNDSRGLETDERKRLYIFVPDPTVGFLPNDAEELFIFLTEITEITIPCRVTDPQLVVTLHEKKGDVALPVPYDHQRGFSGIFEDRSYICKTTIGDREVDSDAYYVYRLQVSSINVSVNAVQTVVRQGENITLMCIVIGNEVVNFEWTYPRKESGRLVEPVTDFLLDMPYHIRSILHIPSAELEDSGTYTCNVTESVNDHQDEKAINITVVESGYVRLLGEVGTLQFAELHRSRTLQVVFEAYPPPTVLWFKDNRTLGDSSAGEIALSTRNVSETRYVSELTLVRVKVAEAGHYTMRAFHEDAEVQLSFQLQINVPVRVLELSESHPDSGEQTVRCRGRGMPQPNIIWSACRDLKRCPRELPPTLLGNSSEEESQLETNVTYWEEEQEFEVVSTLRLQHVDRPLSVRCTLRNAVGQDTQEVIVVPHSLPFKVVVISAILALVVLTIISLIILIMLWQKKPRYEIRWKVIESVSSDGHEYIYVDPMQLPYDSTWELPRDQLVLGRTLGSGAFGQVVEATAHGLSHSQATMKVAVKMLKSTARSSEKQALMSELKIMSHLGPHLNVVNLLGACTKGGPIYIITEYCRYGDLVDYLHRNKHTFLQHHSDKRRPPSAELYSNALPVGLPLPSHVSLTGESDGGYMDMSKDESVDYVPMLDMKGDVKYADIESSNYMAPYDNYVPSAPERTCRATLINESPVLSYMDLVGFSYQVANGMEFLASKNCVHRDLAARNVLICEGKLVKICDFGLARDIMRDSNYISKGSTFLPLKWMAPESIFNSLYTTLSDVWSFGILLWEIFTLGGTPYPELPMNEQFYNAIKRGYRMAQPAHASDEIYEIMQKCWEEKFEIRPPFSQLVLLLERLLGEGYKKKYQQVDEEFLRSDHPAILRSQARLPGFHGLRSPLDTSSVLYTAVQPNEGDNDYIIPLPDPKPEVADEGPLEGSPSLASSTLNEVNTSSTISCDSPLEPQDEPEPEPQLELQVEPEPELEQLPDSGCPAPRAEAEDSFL
UniProt Q15118, whole entry, looked up: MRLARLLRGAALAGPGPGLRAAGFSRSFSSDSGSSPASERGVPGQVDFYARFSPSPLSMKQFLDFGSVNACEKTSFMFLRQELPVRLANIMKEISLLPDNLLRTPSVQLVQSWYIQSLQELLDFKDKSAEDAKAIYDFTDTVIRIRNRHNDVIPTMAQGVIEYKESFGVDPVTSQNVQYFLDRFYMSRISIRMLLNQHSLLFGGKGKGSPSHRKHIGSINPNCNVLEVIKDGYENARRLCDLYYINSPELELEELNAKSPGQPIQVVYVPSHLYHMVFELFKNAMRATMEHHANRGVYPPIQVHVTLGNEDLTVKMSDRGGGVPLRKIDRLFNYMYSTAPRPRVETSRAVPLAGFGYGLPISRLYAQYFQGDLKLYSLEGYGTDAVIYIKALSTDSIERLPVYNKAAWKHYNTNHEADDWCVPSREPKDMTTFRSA
UniProt P42356, whole entry, looked up: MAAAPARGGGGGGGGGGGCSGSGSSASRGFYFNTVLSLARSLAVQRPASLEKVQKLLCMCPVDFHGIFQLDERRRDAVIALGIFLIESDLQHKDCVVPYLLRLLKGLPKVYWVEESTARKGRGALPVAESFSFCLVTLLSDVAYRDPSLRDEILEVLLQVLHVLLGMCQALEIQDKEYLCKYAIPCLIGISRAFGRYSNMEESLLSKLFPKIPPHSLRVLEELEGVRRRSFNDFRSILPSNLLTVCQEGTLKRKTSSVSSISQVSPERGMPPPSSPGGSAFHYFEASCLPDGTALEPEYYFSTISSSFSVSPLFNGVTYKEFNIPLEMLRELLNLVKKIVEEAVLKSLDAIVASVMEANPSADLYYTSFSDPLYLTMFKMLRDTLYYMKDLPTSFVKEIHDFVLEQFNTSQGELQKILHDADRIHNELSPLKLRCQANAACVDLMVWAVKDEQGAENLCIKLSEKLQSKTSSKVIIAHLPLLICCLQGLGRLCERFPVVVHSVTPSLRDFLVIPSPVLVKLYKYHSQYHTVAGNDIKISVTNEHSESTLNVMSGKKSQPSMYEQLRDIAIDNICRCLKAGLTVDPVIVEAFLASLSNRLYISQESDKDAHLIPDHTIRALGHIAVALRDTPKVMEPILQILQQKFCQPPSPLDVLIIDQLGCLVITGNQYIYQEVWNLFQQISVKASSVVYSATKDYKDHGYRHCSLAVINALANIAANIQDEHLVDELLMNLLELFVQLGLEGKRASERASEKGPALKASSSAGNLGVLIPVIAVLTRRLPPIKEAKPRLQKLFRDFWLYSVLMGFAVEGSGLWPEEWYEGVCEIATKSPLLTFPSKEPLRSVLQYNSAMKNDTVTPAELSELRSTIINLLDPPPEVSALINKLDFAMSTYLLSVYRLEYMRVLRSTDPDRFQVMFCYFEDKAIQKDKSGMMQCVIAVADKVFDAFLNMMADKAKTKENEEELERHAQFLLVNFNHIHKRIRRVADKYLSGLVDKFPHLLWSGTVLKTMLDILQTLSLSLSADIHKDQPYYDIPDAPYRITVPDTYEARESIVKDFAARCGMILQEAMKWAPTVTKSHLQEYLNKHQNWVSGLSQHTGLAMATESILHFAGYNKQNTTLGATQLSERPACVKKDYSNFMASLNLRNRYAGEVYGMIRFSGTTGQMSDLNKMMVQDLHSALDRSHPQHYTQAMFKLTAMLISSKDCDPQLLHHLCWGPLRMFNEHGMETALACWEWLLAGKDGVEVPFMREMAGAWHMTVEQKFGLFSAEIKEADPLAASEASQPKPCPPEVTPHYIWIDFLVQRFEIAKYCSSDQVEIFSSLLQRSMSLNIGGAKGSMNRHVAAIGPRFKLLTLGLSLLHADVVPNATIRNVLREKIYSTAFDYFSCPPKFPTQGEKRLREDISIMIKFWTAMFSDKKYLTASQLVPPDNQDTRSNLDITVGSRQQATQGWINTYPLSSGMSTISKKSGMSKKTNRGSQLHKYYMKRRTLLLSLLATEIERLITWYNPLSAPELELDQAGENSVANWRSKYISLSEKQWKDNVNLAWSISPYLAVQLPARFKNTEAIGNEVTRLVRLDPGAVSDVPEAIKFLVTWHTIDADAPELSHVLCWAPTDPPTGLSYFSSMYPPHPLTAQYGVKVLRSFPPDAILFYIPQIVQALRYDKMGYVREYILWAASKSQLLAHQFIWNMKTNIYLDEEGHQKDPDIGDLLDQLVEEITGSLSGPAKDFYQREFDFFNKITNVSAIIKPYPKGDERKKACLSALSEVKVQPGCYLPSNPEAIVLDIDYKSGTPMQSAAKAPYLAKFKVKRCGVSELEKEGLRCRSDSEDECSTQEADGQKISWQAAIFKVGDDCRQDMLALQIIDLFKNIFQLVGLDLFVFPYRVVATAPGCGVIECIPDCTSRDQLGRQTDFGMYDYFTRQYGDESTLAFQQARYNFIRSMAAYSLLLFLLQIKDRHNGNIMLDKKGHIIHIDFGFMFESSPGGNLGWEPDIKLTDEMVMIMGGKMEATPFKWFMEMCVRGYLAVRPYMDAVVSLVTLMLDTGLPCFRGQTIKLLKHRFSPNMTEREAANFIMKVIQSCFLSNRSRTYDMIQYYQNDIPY
UniProt Q9UBF8: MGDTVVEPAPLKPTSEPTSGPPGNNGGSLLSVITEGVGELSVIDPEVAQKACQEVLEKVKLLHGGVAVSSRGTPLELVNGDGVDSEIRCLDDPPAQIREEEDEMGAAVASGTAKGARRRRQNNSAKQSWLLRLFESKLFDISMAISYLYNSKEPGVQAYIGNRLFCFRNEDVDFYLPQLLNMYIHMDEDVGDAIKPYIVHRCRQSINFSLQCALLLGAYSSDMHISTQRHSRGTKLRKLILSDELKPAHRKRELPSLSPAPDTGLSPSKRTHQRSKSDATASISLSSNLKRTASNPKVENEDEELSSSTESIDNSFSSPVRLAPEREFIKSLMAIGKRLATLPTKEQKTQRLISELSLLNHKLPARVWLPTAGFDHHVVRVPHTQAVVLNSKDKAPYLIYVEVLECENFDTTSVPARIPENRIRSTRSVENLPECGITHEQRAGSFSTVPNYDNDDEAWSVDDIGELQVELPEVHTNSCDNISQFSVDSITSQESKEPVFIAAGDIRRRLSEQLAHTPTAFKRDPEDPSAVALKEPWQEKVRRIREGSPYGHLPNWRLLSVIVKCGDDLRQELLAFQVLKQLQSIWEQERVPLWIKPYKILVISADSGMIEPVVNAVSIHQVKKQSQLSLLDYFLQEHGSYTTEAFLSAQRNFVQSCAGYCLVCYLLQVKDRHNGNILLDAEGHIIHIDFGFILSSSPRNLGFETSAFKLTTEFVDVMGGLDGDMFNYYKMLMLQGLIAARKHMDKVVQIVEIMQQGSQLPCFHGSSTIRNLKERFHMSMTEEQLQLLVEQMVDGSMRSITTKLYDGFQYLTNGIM

Measured: kinase-Nluc reporter destabilization hit call

CS(=O)(=O)N1CCc2c(-c3cnc(N)nc3)nc(N3CCOCC3)nc21 (10 µM)
inactive: [1] 0 | [2] 0 | [3] 0 | [4] 0 | [5] 0 | [6] 0 | [7] 0 | [8] 0 | [9] 0 | [10] 0 | [11] 0 | [12] 0 | [13] 0 | [14] 0 | [15] 0 | [16] 0 | [17] 0 | [18] 0 | [19] 0 | [20] 0

Cn1cc(C2=C(c3c4n(c5ccccc35)CCC(CN)C4)C(=O)NC2=O)c2ccccc21 (stereo not given) [Bisindolylmaleimide X (hydrochloride)] (2.5 µM)
inactive: [1] 0 | [2] 0 | [3] 0 | [4] 0 | [5] 0 | [6] 0 | [7] 0 | [8] 0 | [9] 0 | [10] 0 | [11] 0 | [12] 0 | [13] 0 | [14] 0 | [15] 0 | [16] 0 | [17] 0 | [18] 0 | [19] 0 | [20] 0

O=C(c1ccc(NS(=O)(=O)c2cccc3cccnc23)cc1)N1CCN(CC2CC2)CC1 [Mitapivat] (10 µM)
inactive: [1] 0 | [2] 0 | [3] 0 | [4] 0 | [5] 0 | [6] 0 | [7] 0 | [8] 0 | [9] 0 | [10] 0 | [11] 0 | [12] 0 | [13] 0 | [14] 0 | [15] 0 | [16] 0 | [17] 0 | [18] 0 | [19] 0 | [20] 0

O=C(Nc1cc(Cl)cc(Cl)c1)Nc1cc(Cl)cc(Cl)c1 (10 µM)
inactive: [1] 0 | [2] 0 | [3] 0 | [4] 0 | [5] 0 | [6] 0 | [7] 0 | [8] 0 | [9] 0 | [10] 0 | [11] 0 | [12] 0 | [13] 0 | [14] 0 | [15] 0 | [16] 0 | [17] 0 | [18] 0 | [19] 0 | [20] 0

2 compounds drawn at random from those above:
O=C(Nc1cc(Cl)cc(Cl)c1)Nc1cc(Cl)cc(Cl)c1 (10 µM)
inactive: [1] 0 | [2] 0 | [3] 0 | [4] 0 | [5] 0 | [6] 0 | [7] 0 | [8] 0 | [9] 0 | [10] 0 | [11] 0 | [12] 0 | [13] 0 | [14] 0 | [15] 0 | [16] 0 | [17] 0 | [18] 0 | [19] 0 | [20] 0

Cn1cc(C2=C(c3c4n(c5ccccc35)CCC(CN)C4)C(=O)NC2=O)c2ccccc21 (stereo not given) [Bisindolylmaleimide X (hydrochloride)] (2.5 µM)
inactive: [1] 0 | [2] 0 | [3] 0 | [4] 0 | [5] 0 | [6] 0 | [7] 0 | [8] 0 | [9] 0 | [10] 0 | [11] 0 | [12] 0 | [13] 0 | [14] 0 | [15] 0 | [16] 0 | [17] 0 | [18] 0 | [19] 0 | [20] 0

Following part

CC(=O)Nc1nc(C)c(-c2ccc(Cl)c(S(=O)(=O)NCCO)c2)s1 (10 µM)
inactive: [1] 0 | [2] 0 | [3] 0 | [4] 0 | [5] 0 | [6] 0 | [7] 0 | [8] 0 | [9] 0 | [10] 0 | [11] 0 | [12] 0 | [13] 0 | [14] 0 | [15] 0 | [16] 0 | [17] 0 | [18] 0 | [19] 0 | [20] 0

O=C(Nc1nccs1)C(c1cc(F)ccc1O)N1Cc2ccc(-c3ccc(N4CCNCC4)cc3)cc2C1=O (racemic) (10 µM)
inactive: [1] 0 | [2] 0 | [3] 0 | [4] 0 | [5] 0 | [6] 0 | [7] 0 | [8] 0 | [9] 0 | [10] 0 | [11] 0 | [12] 0 | [13] 0 | [14] 0 | [15] 0 | [16] 0 | [17] 0 | [18] 0 | [19] 0 | [20] 0

C=CCN(/C=C1/C(=O)O[C@H](COC)[C@@]2(C)C1=C(O)C(=O)C1=C2[C@H](OC(C)=O)C[C@]2(C)C(=O)CC[C@@H]12)CC=C [Sonolisib] (2.5 µM)
inactive: [1] 0 | [2] 0 | [3] 0 | [4] 0 | [5] 0 | [6] 0 | [7] 0 | [8] 0 | [9] 0 | [10] 0 | [11] 0 | [12] 0 | [13] 0 | [14] 0 | [15] 0 | [16] 0 | [17] 0 | [18] 0 | [19] 0 | [20] 0

O=c1cc(N2CCOCC2)oc2c1ccc1ccccc12 (2 µM)
inactive: [1] 0 | [2] 0 | [3] 0 | [4] 0 | [5] 0 | [6] 0 | [7] 0 | [8] 0 | [9] 0 | [10] 0 | [11] 0 | [12] 0 | [13] 0 | [14] 0 | [15] 0 | [16] 0 | [17] 0 | [18] 0 | [19] 0 | [20] 0

CC(C)c1cnn2c(NCc3ccccc3)cc(NCCCCCCN)nc12 [BS-181 (hydrochloride)] (10 µM)
inactive: [1] 0 | [2] 0 | [3] 0 | [4] 0 | [5] 0 | [6] 0 | [7] 0 | [8] 0 | [9] 0 | [10] 0 | [11] 0 | [12] 0 | [13] 0 | [14] 0 | [15] 0 | [16] 0 | [17] 0 | [18] 0 | [19] 0 | [20] 0

CC(C)(C)S(=O)(=O)c1ccc2nccc(Nc3n[nH]c4ccc(F)cc34)c2c1 (10 µM)
inactive: [1] 0 | [2] 0 | [3] 0 | [4] 0 | [5] 0 | [6] 0 | [7] 0 | [8] 0 | [9] 0 | [10] 0 | [11] 0 | [12] 0 | [13] 0 | [14] 0 | [15] 0 | [16] 0 | [17] 0 | [18] 0 | [19] 0 | [20] 0

COc1cc(/C=C/c2ccc(NC(=O)/C=C/c3cc(OC)c(OC)c(OC)c3)cc2)cc(OC)c1 (2.5 µM)
inactive: [1] 0 | [2] 0 | [3] 0 | [4] 0 | [5] 0 | [6] 0 | [7] 0 | [8] 0 | [9] 0 | [10] 0 | [11] 0 | [12] 0 | [13] 0 | [14] 0 | [15] 0 | [16] 0 | [17] 0 | [18] 0 | [19] 0 | [20] 0

Cn1sc(=O)n(Cc2ccccc2)c1=O (10 µM)
inactive: [1] 0 | [2] 0 | [3] 0 | [4] 0 | [5] 0 | [6] 0 | [7] 0 | [8] 0 | [9] 0 | [10] 0 | [11] 0 | [12] 0 | [13] 0 | [14] 0 | [15] 0 | [16] 0 | [17] 0 | [18] 0 | [19] 0 | [20] 0

C=CC(=O)Nc1cc(C(=O)NC)cc(-c2n[nH]c3ccccc23)c1 (10 µM)
inactive: [1] 0 | [2] 0 | [3] 0 | [4] 0 | [5] 0 | [6] 0 | [7] 0 | [8] 0 | [9] 0 | [10] 0 | [11] 0 | [12] 0 | [13] 0 | [14] 0 | [15] 0 | [16] 0 | [17] 0 | [18] 0 | [19] 0 | [20] 0

CN(C/C=C/C(=O)Nc1ccc(C(=O)Nc2cccc(Nc3ncc(Cl)c(-c4c[nH]c5ccccc45)n3)c2)cc1)CCCNC(=O)NCCOCCOCCOCCNC(=O)CCCC[C@@H]1SC[C@@H]2NC(=O)N[C@@H]21 (2.5 µM)
inactive: [1] 0 | [2] 0 | [3] 0 | [4] 0 | [5] 0 | [6] 0 | [7] 0 | [8] 0 | [9] 0 | [10] 0 | [11] 0 | [12] 0 | [13] 0 | [14] 0 | [15] 0 | [16] 0 | [17] 0 | [18] 0 | [19] 0 | [20] 0

CNS(=O)(=O)Nc1nccc(Cc2c(C)c3ccc(Oc4ncccn4)cc3oc2=O)c1F (10 µM)
inactive: [1] 0 | [2] 0 | [3] 0 | [4] 0 | [5] 0 | [6] 0 | [7] 0 | [8] 0 | [9] 0 | [10] 0 | [11] 0 | [12] 0 | [13] 0 | [14] 0 | [15] 0 | [16] 0 | [17] 0 | [18] 0 | [19] 0 | [20] 0

O=C1NCCSc2c1sc1ccc(O)cc21 (2.5 µM)
inactive: [1] 0 | [2] 0 | [3] 0 | [4] 0 | [5] 0 | [6] 0 | [7] 0 | [8] 0 | [9] 0 | [10] 0 | [11] 0 | [12] 0 | [13] 0 | [14] 0 | [15] 0 | [16] 0 | [17] 0 | [18] 0 | [19] 0 | [20] 0

COC(=O)c1cc2c(OC(C)C)cc(OC(C)C)cc2[nH]1 (2.5 µM)
inactive: [1] 0 | [2] 0 | [3] 0 | [4] 0 | [5] 0 | [6] 0 | [7] 0 | [8] 0 | [9] 0 | [10] 0 | [11] 0 | [12] 0 | [13] 0 | [14] 0 | [15] 0 | [16] 0 | [17] 0 | [18] 0 | [19] 0 | [20] 0

— the supplement of paper PMC12823440, “Inhibitors supercharge kinase turnover through native proteolytic circuits” (Nature, 2025)
